# Results from one PubChem assay

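A 48-hour survival test on the INA6 myeloma line, read by a glow signal that tracks cellular ATP. Each drug was tested as a concentration series, mostly topping out at 45.8 µM; across the whole assay the doses span about 0.00003 to 92 µM. The number is the fitted AC50, the concentration giving half the maximal effect; a lower value means a more potent drug. Calls follow the NCATS curve-class score: active scores 40–100, inconclusive scores 1–39 (weak, poorly fitted, single-point or opposite-direction curves), and inactive (class 4) scores 0.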

Values are in µM. All entries here are filed as inconclusive. These entries are mostly ones the record files as inconclusive; other results of the assay are not listed here. A potency from a partial, single-point or poor curve is only a rough figure. The first word of each remark tells which way the curve ran; it can be opposite to the aim of the assay. Activity scores are not listed here.

| structure | Potency (µM) | remark |
|---|---|---|
| `Cc1cn2cc(C(=O)N(C)CCO)cc(N[C@@H]3CCOc4cccc(C)c43)c2n1` | 0.0332 | rising, full curve, poor fit |
| `CCc1cc2c(cc1N1CCC(N3CCOCC3)CC1)C(C)(C)c1[nH]c3cc(C#N)ccc3c1C2=O` | 2.349 | cytotoxic, full curve, poor fit |
| `O=C(NCc1ccccc1)[C@H](Cc1ccccc1)NC(=O)[C@@H]1O[C@@H]1C(=O)NCCc1ccc(O)cc1` | 0.0132 | rising, full curve, poor fit |
| `CC(=CC(=O)Nc1ccccc1C(=O)O)c1ccc2ccccc2c1` | 20.93 | cytotoxic, partial curve, poor fit |
| `O=S(=O)(O)c1ccc2cc(N=Nc3cc(S(=O)(=O)O)c4cccnc4c3O)ccc2c1` | 0.0074 | rising, full curve, poor fit |
| `Cc1cc(NC(=O)Nc2ccc(N(C)C)cc2)c2cc(F)cc(F)c2n1` | 2.349 | cytotoxic, full curve, poor fit |
| `O=C(O)CCC=CCC[C@@H]1[C@H](N2CCCCC2)[C@@H](O)C[C@@H]1OCc1ccc(-c2ccccc2)cc1` | 3.722 | cytotoxic, full curve, poor fit |
| `OCc1ccc(-c2nn(Cc3ccccc3)c3ccccc23)o1` | 18.65 | cytotoxic, partial curve, poor fit |
| `CS(=O)(=O)c1ccc(-c2cnc(N)c(C(=O)Nc3ccccc3)n2)cc1` | 1.865 | cytotoxic, full curve, poor fit |
| `CC(=O)Oc1ccccc1C(=O)O` | 0.1865 | rising, full curve, poor fit |
| `NC(=O)N1c2ccccc2CC(=O)c2ccccc21` | 0.001 | cytotoxic |
| `COc1cnc(NS(=O)(=O)c2ccc(N)cc2)nc1` | 33.17 | cytotoxic, single point |
| `CCOc1cc(C=C2C(=O)N(c3ccccc3)N=C2C)cc(Cl)c1OCC(=O)OC` | 7.427 | cytotoxic, partial curve, poor fit |
| `CC1(C)CNc2cc(NC(=O)c3cccnc3NCc3ccncc3)ccc21` | 1.865 | cytotoxic, full curve, poor fit |
| `CNNCc1ccc(C(=O)NC(C)C)cc1` | 0.935 | rising, partial curve, poor fit |
| `O=S(=O)(c1cccc2cnccc12)N1CCCNCC1` | 37.22 | cytotoxic, single point |
| `Cc1ccccc1C(=O)Nc1ccc(C(=O)N2CCCC(O)c3cc(Cl)ccc32)c(C)c1` (stereo not drawn) | 1.049 | rising, partial curve |
| `C[C@@H]1CC[C@@]2(OC1)OC1CC3C4CC=C5CC(O)CCC5(C)C4CCC3(C)C1[C@@H]2C` (stereo partly drawn) | 0.0059 | rising, full curve, poor fit |
| `COc1cc(F)c(C(C)C)cc1-c1ccc(C(F)(F)F)cc1CN1C(=O)O[C@H](c2cc(C(F)(F)F)cc(C(F)(F)F)c2)[C@@H]1C` | 4.176 | cytotoxic, full curve, poor fit |
| `O=C(O)CCCCC(CCSCc1ccccc1)SCc1ccccc1` (stereo not drawn) | 37.22 | cytotoxic, single point |
| `O=C(Nc1ccc(Oc2ccnc3[nH]ccc23)c(F)c1)c1cccn(-c2ccc(F)cc2)c1=O` | 37.22 | cytotoxic, single point |
| `COc1ccc(CCC(=O)Nc2nc3ccc(Cl)cc3s2)cc1OC` | 18.65 | cytotoxic, partial curve, poor fit |
| `C=C(c1ccc(C(=O)O)cc1)c1cc2c(cc1C)C(C)(C)CCC2(C)C` | 29.57 | cytotoxic, single point |
| `Cc1ccccc1N1C(=O)c2cc(S(N)(=O)=O)c(Cl)cc2NC1C` (stereo not drawn) | 0.2635 | rising, full curve, poor fit |
| `CN(CC=CC#CC(C)(C)C)Cc1cccc2ccccc12` | 33.17 | cytotoxic, single point |
| `NC(=O)c1ccc(-c2nc(-c3ccc4c(c3)OCCO4)c(-c3ccccn3)[nH]2)cc1` | 33.17 | cytotoxic, single point |
| `Nc1ccn([C@@H]2O[C@H](CO)[C@@H](O)C2O)c(=O)n1` (stereo partly drawn) | 0.059 | rising, full curve, poor fit |
| `Cc1ccnc2c1NC(=O)c1cccnc1N2C1CC1` | 29.57 | cytotoxic, partial curve, poor fit |
| `Nc1ccn([C@H]2CC[C@@H](CO)O2)c(=O)n1` | 14.82 | cytotoxic, partial curve, poor fit |
| `O=C(Nc1cccc(C(F)(F)F)c1)Nc1cc(S(=O)(=O)NC2CC2)ccc1-c1ccsc1` | 33.17 | cytotoxic, single point |
| `COc1cc2nccc(Oc3ccc(NC(=O)C4(C(=O)Nc5ccc(F)cc5)CC4)cc3)c2cc1OC` | 29.57 | cytotoxic, single point |
| `NCCc1ccc(O)c(O)c1` | 37.22 | cytotoxic, single point |
| `O=NN(CCCl)C(=O)NC1CCCCC1` | 0.0418 | rising, full curve, poor fit |
| `CC(C)Cn1cnc2c(N)nc3ccccc3c21` | 4.176 | cytotoxic, full curve, poor fit |
| `C[C@]12CC[C@H](O)CC1=CC[C@H]1[C@H]3CCC(=O)[C@@]3(C)CC[C@@H]12` | 18.65 | cytotoxic, partial curve |
| `COc1ccc(-n2nc(C(N)=O)c3c2C(=O)N(c2ccc(N4CCCCC4=O)cc2)CC3)cc1` | 37.22 | cytotoxic, single point |
| `CC(C)(C)Cn1c(N)nc2ccc(-c3[nH]c(C(C)(C)C)nc3-c3ccc(F)cc3)nc21` | 13.21 | cytotoxic, partial curve, poor fit |
| `NNCCc1ccccc1` | 3.317 | cytotoxic, full curve, poor fit |
| `CCC(C)(Oc1ccc(C2(c3ccc(OC(C)(CC)C(=O)O)cc3)CCCCC2)cc1)C(=O)O` (stereo not drawn) | 0.0037 | rising, full curve, poor fit |
| `NC[C@H](O)c1ccc(O)c(O)c1` | 1.482 | cytotoxic, full curve, poor fit |

Repeated from the top, 5 entries:

{"structure": "Cc1cn2cc(C(=O)N(C)CCO)cc(N[C@@H]3CCOc4cccc(C)c43)c2n1", "Potency (µM)": "0.0332", "remark": "rising, full curve, poor fit"}
{"structure": "CCc1cc2c(cc1N1CCC(N3CCOCC3)CC1)C(C)(C)c1[nH]c3cc(C#N)ccc3c1C2=O", "Potency (µM)": "2.349", "remark": "cytotoxic, full curve, poor fit"}
{"structure": "O=C(NCc1ccccc1)[C@H](Cc1ccccc1)NC(=O)[C@@H]1O[C@@H]1C(=O)NCCc1ccc(O)cc1", "Potency (µM)": "0.0132", "remark": "rising, full curve, poor fit"}
{"structure": "CC(=CC(=O)Nc1ccccc1C(=O)O)c1ccc2ccccc2c1", "Potency (µM)": "20.93", "remark": "cytotoxic, partial curve, poor fit"}
{"structure": "O=S(=O)(O)c1ccc2cc(N=Nc3cc(S(=O)(=O)O)c4cccnc4c3O)ccc2c1", "Potency (µM)": "0.0074", "remark": "rising, full curve, poor fit"}

Source: PubChem BioAssay AID1918965 (NCATS, 2023).